Test results from patent publication US20190022061A1, “Statins (Atorvastatin) can lower blood sugar level in diabetic” (priority 2017, published 2019).

Key:
Type in all cases: in vivo, C57BL/6J mice
[1] = system: Diet-induced obesity (DIO) mice; assay: Blood glucose level in DIO mice; settings: po three times a day, compared with the vehicle groups, 8 weeks post dose
Procedure: (§1) In this study, RAASUS products (KH103, KHJ and KHGD) were dosed three times a day (T ID) for 99 days. Atorvastatin was used as a positive control at a dose of 20 mg/kg three times a day (T ID). On day 63 post dosing, OGTT test were conducted for all of the mice. On the day 65 post dosing, 6 mice from each group were killed for bio-marker samples collection. Body weight and food intake were detected twice per week. On day −5, day 14, day 28 the non-fast blood was collected to determine the non-fast BG, insulin, TG, HDL-C, LDL-C and TCHO level. On day 42, day 56, day 70, day 84 the fast blood was collected to determine the fast BG, insulin, TG, HDL-C, LDL-C and TCHO level.
(§2) Male C57BL/6J mice (Shanghai Laboratory Animal Center, Shanghai, China, 5 weeks) were fed with high fat diet (D12492i, Research Diet, New Brunswick, N.J.) (caloric contribution: protein, 20%; fat, 60%; carbohydrates, 20%) ad lib for 21 weeks for the induction of obesity. […]
(§3) The random blood glucose, insulin level were measured using tailing nick once per two weeks on day −5, day 14, day 28.
(§4) The fast blood glucose (fast from 17:30 to 8:00 AM) insulin level were measured using tailing nick once per two weeks on day 42, day 56, day 70, day 84. […]
Blood Glucose: Blood glucose was determined using the Glucosemeter (Johnson and Johnson) and the Glucose Test Strips (Johnson and Johnson).

[2] = system: Diet-induced obesity (DIO) mice; assay: Plasma insulin level in DIO mice; settings: po three times a day
Procedure: as §1, §2, §3, §4
Plasma Insulin assay: Plasma insulin was determined using a commercial kit (Catalog #: EZRM1-13K) purchased from Millipore (Billerica, Mass., USA).

[3] = system: Diet-induced obesity (DIO) mice; assay: OGTT (oral glucose tolerance test) in DIO mice; settings: po three times a day, compared with the vehicle groups
Procedure: as §1
Male C57BL/6J mice (Shanghai Laboratory Animal Center, Shanghai, China, 5 weeks) were fed with high fat diet (D12492i, Research Diet, New Brunswick, N.J.) (caloric contribution: protein, 20%; fat, 60%; carbohydrates, 20%) ad lib for 21 weeks for the induction of obesity.
The mice of group 1 and group 2 were orally dosed with vehicle or Atorvastatin-20 mg/l<g respectively three times per day at 9:00, 13:00, 17:00 and fresh water, ad libitum from Day O to Day 99. […]
as §4

In the case of `CC(C)c1c(C(=O)Nc2ccccc2)c(-c2ccccc2)c(-c2ccc(F)cc2)n1CC[C@@H](O)C[C@@H](O)CC(=O)O` [Atorvastatin], the “blood glucose level AUC (0-8 weeks)” value [1] is reported as “significantly decrease”, the plasma insulin level ([2]; 10 weeks and 12 weeks post dose) is reported as “trend to decrease” and the “insulin AUC (0-8 weeks)” value ([2]; compared with the vehicle groups, post dose 8 weeks) is reported as “significantly decrease”. For the same compound, the “OGTT glucose AUC (0-120 min)” value ([3]; post dose 63 days) was “significantly decrease” and the “OGTT glucose AUC (0-120 min)” value ([3]; post dose 91 days) was “significantly decrease”.
